# Results from the supplement of paper PMC10032668.
# Amino acid sequences for entries named in this document (tags omitted).
# KHDRBS1, Q07666, UniProt Q07666, whole entry: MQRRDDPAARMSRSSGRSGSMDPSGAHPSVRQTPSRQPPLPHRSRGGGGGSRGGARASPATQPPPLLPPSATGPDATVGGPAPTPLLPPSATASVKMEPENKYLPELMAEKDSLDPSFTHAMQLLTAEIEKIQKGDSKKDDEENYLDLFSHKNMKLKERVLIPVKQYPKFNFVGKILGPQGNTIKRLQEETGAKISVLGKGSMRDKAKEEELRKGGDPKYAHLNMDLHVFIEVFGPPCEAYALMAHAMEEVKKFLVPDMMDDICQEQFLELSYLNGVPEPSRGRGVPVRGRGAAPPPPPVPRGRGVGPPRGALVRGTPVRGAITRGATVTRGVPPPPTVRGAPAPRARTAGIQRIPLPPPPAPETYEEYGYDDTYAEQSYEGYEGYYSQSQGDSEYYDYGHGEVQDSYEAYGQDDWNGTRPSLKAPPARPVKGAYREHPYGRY
# NDUFB7, P17568, UniProt P17568, whole entry: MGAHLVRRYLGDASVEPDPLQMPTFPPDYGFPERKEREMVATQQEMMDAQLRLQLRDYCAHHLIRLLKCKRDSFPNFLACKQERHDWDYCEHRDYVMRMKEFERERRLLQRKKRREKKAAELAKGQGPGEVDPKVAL
# EIF4E, P06730, UniProt P06730, whole entry: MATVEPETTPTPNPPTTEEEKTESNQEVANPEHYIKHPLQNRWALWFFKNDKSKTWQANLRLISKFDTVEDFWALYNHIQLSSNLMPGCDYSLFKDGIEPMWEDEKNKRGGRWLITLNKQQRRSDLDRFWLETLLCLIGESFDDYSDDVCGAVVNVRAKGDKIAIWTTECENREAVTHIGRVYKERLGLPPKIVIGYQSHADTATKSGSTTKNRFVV
# SERPINA1, P01009, UniProt P01009, whole entry: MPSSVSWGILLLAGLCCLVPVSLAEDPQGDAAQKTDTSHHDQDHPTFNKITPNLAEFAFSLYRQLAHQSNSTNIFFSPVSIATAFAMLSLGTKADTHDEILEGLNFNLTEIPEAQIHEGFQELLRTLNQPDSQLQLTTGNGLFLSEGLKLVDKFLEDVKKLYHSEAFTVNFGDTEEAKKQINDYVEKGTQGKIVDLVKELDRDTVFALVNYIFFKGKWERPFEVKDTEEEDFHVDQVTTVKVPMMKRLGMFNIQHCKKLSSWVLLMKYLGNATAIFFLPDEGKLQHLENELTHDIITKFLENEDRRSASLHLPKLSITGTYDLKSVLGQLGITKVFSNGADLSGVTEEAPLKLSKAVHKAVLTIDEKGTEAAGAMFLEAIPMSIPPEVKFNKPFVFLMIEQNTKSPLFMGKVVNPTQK
# APEX1, P27695, UniProt P27695, whole entry: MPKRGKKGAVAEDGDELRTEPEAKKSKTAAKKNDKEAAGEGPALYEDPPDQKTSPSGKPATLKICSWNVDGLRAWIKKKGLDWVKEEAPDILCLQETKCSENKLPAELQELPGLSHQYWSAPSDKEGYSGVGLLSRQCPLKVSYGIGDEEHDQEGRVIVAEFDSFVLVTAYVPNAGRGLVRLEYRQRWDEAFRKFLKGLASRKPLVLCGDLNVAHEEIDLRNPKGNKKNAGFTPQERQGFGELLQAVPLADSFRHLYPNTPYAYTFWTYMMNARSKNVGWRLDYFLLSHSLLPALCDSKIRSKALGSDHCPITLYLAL
# CAMP, P49913, UniProt P49913, whole entry: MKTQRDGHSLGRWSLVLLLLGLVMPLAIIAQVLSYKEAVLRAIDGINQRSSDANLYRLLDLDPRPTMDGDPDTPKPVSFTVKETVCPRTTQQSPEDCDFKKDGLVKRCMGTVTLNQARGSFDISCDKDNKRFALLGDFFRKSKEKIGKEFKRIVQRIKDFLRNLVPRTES
# PABPC4, Q13310, UniProt Q13310, whole entry: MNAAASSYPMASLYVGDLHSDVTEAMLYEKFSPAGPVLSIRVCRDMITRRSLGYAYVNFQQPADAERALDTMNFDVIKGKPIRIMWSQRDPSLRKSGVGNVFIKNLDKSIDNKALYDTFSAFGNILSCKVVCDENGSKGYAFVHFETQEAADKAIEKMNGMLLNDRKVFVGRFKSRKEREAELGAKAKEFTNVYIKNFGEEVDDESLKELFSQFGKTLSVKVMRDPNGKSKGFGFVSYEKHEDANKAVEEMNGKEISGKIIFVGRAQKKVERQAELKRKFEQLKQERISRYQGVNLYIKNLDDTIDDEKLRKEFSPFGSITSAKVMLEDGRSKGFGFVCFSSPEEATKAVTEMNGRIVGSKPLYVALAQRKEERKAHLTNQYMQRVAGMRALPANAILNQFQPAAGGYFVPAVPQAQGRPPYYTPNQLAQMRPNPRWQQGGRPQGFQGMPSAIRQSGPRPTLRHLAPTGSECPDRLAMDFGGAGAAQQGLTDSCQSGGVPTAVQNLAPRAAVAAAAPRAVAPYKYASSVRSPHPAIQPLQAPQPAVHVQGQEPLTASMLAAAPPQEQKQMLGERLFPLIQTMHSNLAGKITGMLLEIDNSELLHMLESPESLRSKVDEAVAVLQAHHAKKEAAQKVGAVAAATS
# SRSF1, Q07955, UniProt Q07955, whole entry: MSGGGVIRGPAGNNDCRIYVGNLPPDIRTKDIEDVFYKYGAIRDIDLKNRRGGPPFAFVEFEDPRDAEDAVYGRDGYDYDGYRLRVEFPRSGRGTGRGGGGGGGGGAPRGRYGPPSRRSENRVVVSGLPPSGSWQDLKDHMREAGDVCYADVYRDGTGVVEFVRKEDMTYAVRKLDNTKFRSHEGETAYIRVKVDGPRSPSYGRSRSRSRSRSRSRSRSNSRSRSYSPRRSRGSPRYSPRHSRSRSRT
# TF, P02787, UniProt P02787, whole entry: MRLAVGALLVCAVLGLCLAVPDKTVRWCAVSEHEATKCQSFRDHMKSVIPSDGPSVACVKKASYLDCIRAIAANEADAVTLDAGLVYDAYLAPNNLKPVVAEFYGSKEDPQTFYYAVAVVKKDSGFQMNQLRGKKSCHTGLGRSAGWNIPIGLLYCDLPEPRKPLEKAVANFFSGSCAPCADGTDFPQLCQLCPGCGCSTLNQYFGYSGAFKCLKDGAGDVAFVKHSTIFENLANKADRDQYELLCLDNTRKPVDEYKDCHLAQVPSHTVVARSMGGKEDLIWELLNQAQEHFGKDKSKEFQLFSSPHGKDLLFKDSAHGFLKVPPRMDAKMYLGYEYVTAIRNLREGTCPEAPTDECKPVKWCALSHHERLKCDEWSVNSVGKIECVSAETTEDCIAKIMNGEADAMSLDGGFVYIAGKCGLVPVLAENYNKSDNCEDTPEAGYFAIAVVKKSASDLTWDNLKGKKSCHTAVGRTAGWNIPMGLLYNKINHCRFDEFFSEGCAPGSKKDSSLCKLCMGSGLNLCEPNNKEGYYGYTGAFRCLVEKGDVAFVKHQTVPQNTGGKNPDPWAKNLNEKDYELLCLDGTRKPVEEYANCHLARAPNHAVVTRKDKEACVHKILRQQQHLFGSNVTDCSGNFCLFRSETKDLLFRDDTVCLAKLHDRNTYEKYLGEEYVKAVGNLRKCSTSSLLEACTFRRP
# GNL1, P36915, UniProt P36915, whole entry: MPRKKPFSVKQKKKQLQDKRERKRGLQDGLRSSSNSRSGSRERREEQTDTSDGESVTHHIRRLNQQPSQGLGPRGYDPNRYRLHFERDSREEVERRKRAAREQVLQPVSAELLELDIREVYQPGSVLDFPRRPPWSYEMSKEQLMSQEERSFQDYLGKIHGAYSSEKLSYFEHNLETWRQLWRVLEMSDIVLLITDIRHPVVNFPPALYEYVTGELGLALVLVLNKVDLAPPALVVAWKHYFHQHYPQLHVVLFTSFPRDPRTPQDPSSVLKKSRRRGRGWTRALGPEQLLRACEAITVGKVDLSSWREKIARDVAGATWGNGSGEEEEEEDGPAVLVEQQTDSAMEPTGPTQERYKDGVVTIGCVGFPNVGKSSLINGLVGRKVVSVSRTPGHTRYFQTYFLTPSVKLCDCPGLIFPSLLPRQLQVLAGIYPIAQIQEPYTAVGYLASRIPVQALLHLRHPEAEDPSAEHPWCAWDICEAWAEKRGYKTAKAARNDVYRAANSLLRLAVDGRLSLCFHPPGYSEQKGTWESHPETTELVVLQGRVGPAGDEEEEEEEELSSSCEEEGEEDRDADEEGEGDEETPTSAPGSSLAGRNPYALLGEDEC
# GRWD1, Q9BQ67, UniProt Q9BQ67, whole entry: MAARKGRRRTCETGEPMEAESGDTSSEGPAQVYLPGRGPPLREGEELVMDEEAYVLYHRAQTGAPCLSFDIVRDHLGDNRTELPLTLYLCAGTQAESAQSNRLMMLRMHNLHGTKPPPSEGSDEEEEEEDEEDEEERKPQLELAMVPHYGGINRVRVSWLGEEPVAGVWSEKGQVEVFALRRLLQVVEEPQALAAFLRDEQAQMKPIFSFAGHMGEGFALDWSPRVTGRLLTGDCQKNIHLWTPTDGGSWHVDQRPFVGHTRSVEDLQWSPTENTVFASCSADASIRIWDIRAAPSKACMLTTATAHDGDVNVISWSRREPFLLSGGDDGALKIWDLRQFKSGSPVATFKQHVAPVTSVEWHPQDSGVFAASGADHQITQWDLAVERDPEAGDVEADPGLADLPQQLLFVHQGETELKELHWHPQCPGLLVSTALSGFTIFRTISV
# SNRNP200, O75643, UniProt O75643, whole entry: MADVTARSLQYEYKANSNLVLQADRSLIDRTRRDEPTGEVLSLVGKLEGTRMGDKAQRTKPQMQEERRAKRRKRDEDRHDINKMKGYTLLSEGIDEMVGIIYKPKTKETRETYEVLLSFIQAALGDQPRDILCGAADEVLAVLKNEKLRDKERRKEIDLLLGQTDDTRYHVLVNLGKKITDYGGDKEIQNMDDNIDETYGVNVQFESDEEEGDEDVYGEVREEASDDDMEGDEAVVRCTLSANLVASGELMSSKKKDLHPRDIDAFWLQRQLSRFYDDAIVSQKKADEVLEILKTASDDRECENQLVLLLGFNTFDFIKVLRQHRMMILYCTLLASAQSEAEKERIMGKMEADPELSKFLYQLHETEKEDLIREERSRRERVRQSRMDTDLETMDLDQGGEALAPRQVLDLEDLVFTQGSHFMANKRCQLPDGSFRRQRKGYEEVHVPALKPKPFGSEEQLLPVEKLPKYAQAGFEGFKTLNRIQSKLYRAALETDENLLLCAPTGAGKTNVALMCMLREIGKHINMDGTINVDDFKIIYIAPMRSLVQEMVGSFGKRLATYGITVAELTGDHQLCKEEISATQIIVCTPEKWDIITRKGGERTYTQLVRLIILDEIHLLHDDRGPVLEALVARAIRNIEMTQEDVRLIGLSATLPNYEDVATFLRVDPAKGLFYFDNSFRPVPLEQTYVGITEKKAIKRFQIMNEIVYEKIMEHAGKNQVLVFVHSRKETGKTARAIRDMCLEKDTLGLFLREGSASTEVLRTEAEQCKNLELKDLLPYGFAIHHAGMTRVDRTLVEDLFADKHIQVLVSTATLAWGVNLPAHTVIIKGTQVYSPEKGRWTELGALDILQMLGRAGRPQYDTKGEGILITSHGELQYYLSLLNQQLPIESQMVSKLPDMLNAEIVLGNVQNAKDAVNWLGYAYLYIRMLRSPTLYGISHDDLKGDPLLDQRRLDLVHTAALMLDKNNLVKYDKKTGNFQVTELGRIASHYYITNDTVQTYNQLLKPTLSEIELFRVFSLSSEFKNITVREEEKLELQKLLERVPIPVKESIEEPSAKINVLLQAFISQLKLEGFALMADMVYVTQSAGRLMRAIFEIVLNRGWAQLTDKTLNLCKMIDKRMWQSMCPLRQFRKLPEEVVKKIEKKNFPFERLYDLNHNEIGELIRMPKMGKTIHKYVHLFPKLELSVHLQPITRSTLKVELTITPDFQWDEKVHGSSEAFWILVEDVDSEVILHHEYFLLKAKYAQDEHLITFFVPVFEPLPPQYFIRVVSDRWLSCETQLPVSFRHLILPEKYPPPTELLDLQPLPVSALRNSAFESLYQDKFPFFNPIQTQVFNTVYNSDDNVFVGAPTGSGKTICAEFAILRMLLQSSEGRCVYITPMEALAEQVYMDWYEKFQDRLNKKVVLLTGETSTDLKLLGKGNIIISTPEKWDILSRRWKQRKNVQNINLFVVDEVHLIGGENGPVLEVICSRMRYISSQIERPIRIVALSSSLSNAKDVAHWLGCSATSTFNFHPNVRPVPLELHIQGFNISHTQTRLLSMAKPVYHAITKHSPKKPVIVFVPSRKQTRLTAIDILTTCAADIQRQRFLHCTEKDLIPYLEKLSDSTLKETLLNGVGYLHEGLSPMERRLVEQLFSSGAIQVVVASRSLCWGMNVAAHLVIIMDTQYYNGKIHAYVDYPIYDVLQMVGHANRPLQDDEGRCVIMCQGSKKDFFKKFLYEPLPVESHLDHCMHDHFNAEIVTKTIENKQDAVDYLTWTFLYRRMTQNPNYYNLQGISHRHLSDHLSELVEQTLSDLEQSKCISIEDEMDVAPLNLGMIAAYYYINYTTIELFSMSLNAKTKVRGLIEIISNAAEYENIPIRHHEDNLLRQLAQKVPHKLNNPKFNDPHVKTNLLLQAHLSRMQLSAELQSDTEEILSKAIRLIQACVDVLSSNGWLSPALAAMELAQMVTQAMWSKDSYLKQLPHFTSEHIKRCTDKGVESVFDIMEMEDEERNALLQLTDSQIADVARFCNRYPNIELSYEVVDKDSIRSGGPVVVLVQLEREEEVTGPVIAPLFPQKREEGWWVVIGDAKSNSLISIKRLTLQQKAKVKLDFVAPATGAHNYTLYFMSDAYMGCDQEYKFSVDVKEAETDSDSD
# The other results are listed elsewhere or left out. Only hits are listed; about a third recur on repeated control peptides.
# Assays:
# Assay in all cases: PRISMA enrichment of interactor (LFQ) in peptide spot vs all other peptide spots (log2 fold change); higher = stronger / more specific binding of the interactor to the peptide
# [1] = target: AP2B1, P63010
# Protocol: (§1)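 PRISMA: 15-aa overlapping tiles (offset 8 aa) of 60 microproteins, plus SOS1/GLUT1 control peptides, were spot-synthesized on cellulose membranes in triplicate. Membranes were incubated with benzonase-treated HEK293T lysate, and bound proteins were identified by LC-MS/MS with LFQ. Enrichment is the log2 fold change of each protein in one spot versus all other spots. Only interactors passing the significance cutoff are listed.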
# [2] = target: BCKDK, O14874
# Protocol: as §1
# [3] = target: CKMT1A, P12532
# Protocol: as §1
# [4] = target: EMG1, Q92979
# Protocol: as §1
# [5] = target: EWSR1, Q01844
# Protocol: as §1
# [6] = target: FAM83D, Q9H4H8
# Protocol: as §1
# [7] = target: FAM98A, Q8NCA5
# Protocol: as §1
# [8] = target: FUS, P35637
# Protocol: as §1
# [9] = target: GABARAPL2, P60520
# Protocol: as §1
# [10] = target: HNRNPA2B1, P22626
# Protocol: as §1
# [11] = target: IBA57, Q5T440
# Protocol: as §1
# [12] = target: KHDRBS1, Q07666
# Protocol: as §1
# [13] = target: MRPL15, Q9P015
# Protocol: as §1
# [14] = target: NDUFB7, P17568
# Protocol: as §1
# [15] = target: NECAP2, Q9NVZ3
# Protocol: as §1
# [16] = substrate: NONO, Q15233
# Protocol: as §1
# [17] = target: NUDT16L1, Q9BRJ7
# Protocol: as §1
# [18] = target: PIN1, Q13526
# Protocol: as §1
# [19] = substrate: PPIF, P30405
# Protocol: as §1
# [20] = target: RBMX, P38159
# Protocol: as §1
# [21] = target: RRS1, Q15050
# Protocol: as §1
# [22] = target: SFPQ, P23246
# Protocol: as §1
# [23] = target: STAG2, Q8N3U4
# Protocol: as §1
# [24] = target: hCG_1984214
# Protocol: as §1
# [25] = target: AP3D1, O14617
# Protocol: as §1
# [26] = target: GEMIN2, O14893
# Protocol: as §1
# [27] = target: RRP7A, Q9Y3A4
# Protocol: as §1
# [28] = target: TRRAP, Q9Y4A5
# Protocol: as §1
# [29] = target: UQCRC1, P31930
# Protocol: as §1
# [30] = target: AP2M1, Q96CW1
# Protocol: as §1
# [31] = target: C19orf47, Q8N9M1
# Protocol: as §1
# [32] = target: CDCA8, Q53HL2
# Protocol: as §1
# [33] = target: CREB1, P16220
# Protocol: as §1
# [34] = target: DECR2, Q9NUI1
# Protocol: as §1
# [35] = target: EIF4E, P06730
# Protocol: as §1
# [36] = target: FGA, P02671
# Protocol: as §1
# [37] = target: INTS7, Q9NVH2
# Protocol: as §1
# [38] = target: KTI12, Q96EK9
# Protocol: as §1
# [39] = target: LAMA5, O15230
# Protocol: as §1
# [40] = target: MRPS34, P82930
# Protocol: as §1
# [41] = target: NME4, O00746
# Protocol: as §1
# [42] = target: NOP53, Q9NZM5
# Protocol: as §1
# [43] = target: PCYT1A, P49585
# Protocol: as §1
# [44] = target: PPP1R2, P41236
# Protocol: as §1
# [45] = target: SERPINA1, P01009
# Protocol: as §1
# [46] = target: SRSF5, Q13243
# Protocol: as §1
# [47] = target: SUPT4H1, P63272
# Protocol: as §1
# [48] = target: TMEM109, Q9BVC6
# Protocol: as §1
# [49] = target: VCP, P55072
# Protocol: as §1
# [50] = target: ZC3H15, Q8WU90
# Protocol: as §1
# [51] = target: ZGRF1, Q86YA3
# Protocol: as §1
# [52] = target: APEX1, P27695
# Protocol: as §1
# [53] = target: CAMP, P49913
# Protocol: as §1
# [54] = target: JAGN1, Q8N5M9
# Protocol: as §1
# [55] = target: NUFIP2, Q7Z417
# Protocol: as §1
# [56] = target: PABPC4, Q13310
# Protocol: as §1
# [57] = target: RRP15, Q9Y3B9
# Protocol: as §1
# [58] = target: SRSF1, Q07955
# Protocol: as §1
# [59] = target: SRSF7, Q16629
# Protocol: as §1
# [60] = target: TAF15, Q92804
# Protocol: as §1
# [61] = target: TRA2B, P62995
# Protocol: as §1
# [62] = target: TRMT5, Q32P41
# Protocol: as §1
# [63] = target: UTP18, Q9Y5J1
# Protocol: as §1
# [64] = target: MRPS16, Q9Y3D3
# Protocol: as §1
# [65] = target: RBL2, Q08999
# Protocol: as §1
# [66] = target: RRP1B, Q14684
# Protocol: as §1
# [67] = target: SRPK1, Q96SB4
# Protocol: as §1
# [68] = target: SYNE2, Q8WXH0
# Protocol: as §1
# [69] = target: TF, P02787
# Protocol: as §1
# [70] = target: API5, Q9BZZ5
# Protocol: as §1
# [71] = target: CPS1, P31327
# Protocol: as §1
# [72] = target: CSDE1, O75534
# Protocol: as §1
# [73] = target: EIF1AD, Q8N9N8
# Protocol: as §1
# [74] = target: GNL1, P36915
# Protocol: as §1
# [75] = target: GRWD1, Q9BQ67
# Protocol: as §1
# [76] = target: LARP7, Q4G0J3
# Protocol: as §1
# [77] = target: NEK7, Q8TDX7
# Protocol: as §1
# [78] = target: PHF8, Q9UPP1
# Protocol: as §1
# [79] = target: SNRNP200, O75643
# Protocol: as §1
# [80] = target: SNRPF, P62306
# Protocol: as §1
# [81] = target: SRSF9, Q13242
# Protocol: as §1
# [82] = target: TMEM11, P17152
# Protocol: as §1
# [83] = target: TRPT1, Q86TN4
# Protocol: as §1
# [84] = target: UBAP2, Q5T6F2
# Protocol: as §1
# [85] = target: UBE2N, P61088
# Protocol: as §1
# [86] = target: UTP11, Q9Y3A2
# Protocol: as §1
binder,measurement,setting,value
CDRFWQTEPALLPPG [PPP1R15A],PRISMA enrichment of interactor (log2),[1],4.88
same,PRISMA enrichment of interactor (log2),[2],4.3
same,PRISMA enrichment of interactor (log2),[3],4.04
same,PRISMA enrichment of interactor (log2),[4],5.61
same,PRISMA enrichment of interactor (log2),[5],7.32
same,PRISMA enrichment of interactor (log2),[6],4.75
same,PRISMA enrichment of interactor (log2),[7],5.14
same,PRISMA enrichment of interactor (log2),[8],7
same,PRISMA enrichment of interactor (log2),[9],4.97
same,PRISMA enrichment of interactor (log2),[10],4.6
same,PRISMA enrichment of interactor (log2),[11],4.28
same,PRISMA enrichment of interactor (log2),[12],5.6
same,PRISMA enrichment of interactor (log2),[13],4.99
same,PRISMA enrichment of interactor (log2),[14],6.27
same,PRISMA enrichment of interactor (log2),[15],4.51
same,PRISMA enrichment of interactor (log2),[16],5.18
same,PRISMA enrichment of interactor (log2),[17],4.57
same,PRISMA enrichment of interactor (log2),[18],4.45
same,PRISMA enrichment of interactor (log2),[19],5.42
same,PRISMA enrichment of interactor (log2),[20],4.59
same,PRISMA enrichment of interactor (log2),[21],5.2
same,PRISMA enrichment of interactor (log2),[22],6.09
same,PRISMA enrichment of interactor (log2),[23],6.53
same,PRISMA enrichment of interactor (log2),[24],5.43
LQRSAKQSVKFQSQS [MKKS_2],PRISMA enrichment of interactor (log2),[25],4.58
same,PRISMA enrichment of interactor (log2),[26],4.98
same,PRISMA enrichment of interactor (log2),[27],4.27
same,PRISMA enrichment of interactor (log2),[28],5.7
same,PRISMA enrichment of interactor (log2),[29],4.24
LHGARLSPLSRNIRG [IDI2-AS1],PRISMA enrichment of interactor (log2),[30],5.53
same,PRISMA enrichment of interactor (log2),[31],5.8
same,PRISMA enrichment of interactor (log2),[32],6.34
same,PRISMA enrichment of interactor (log2),[33],6.2
same,PRISMA enrichment of interactor (log2),[34],8.86
same,PRISMA enrichment of interactor (log2),[35],5.45
same,PRISMA enrichment of interactor (log2),[36],4.29
same,PRISMA enrichment of interactor (log2),[37],6.41
same,PRISMA enrichment of interactor (log2),[38],4.1
same,PRISMA enrichment of interactor (log2),[39],5.04
same,PRISMA enrichment of interactor (log2),[40],6.59
same,PRISMA enrichment of interactor (log2),[41],5.76
same,PRISMA enrichment of interactor (log2),[42],6.41
same,PRISMA enrichment of interactor (log2),[43],4.89
same,PRISMA enrichment of interactor (log2),[44],5.72
same,PRISMA enrichment of interactor (log2),[45],5.48
same,PRISMA enrichment of interactor (log2),[46],5.61
same,PRISMA enrichment of interactor (log2),[47],6.74
same,PRISMA enrichment of interactor (log2),[48],4.61
same,PRISMA enrichment of interactor (log2),[49],4.83
same,PRISMA enrichment of interactor (log2),[50],7.16
same,PRISMA enrichment of interactor (log2),[51],6.66
HGSSFSHKSRNATDY [RP11-12K22.1],PRISMA enrichment of interactor (log2),[52],6.89
same,PRISMA enrichment of interactor (log2),[53],6
same,PRISMA enrichment of interactor (log2),[54],4.38
same,PRISMA enrichment of interactor (log2),[55],5.41
same,PRISMA enrichment of interactor (log2),[56],5.31
same,PRISMA enrichment of interactor (log2),[57],4.69
same,PRISMA enrichment of interactor (log2),[58],5.78
same,PRISMA enrichment of interactor (log2),[59],6.73
same,PRISMA enrichment of interactor (log2),[60],4.88
same,PRISMA enrichment of interactor (log2),[61],6.6
same,PRISMA enrichment of interactor (log2),[62],4.45
same,PRISMA enrichment of interactor (log2),[63],4.56
RLRHGQEQRLQQLLR [RNF10],PRISMA enrichment of interactor (log2),[30],5.48
same,PRISMA enrichment of interactor (log2),[64],7.02
same,PRISMA enrichment of interactor (log2),[42],4.76
same,PRISMA enrichment of interactor (log2),[65],4.9
same,PRISMA enrichment of interactor (log2),[66],4.71
same,PRISMA enrichment of interactor (log2),[67],6.16
same,PRISMA enrichment of interactor (log2),[47],4.49
same,PRISMA enrichment of interactor (log2),[68],4.67
same,PRISMA enrichment of interactor (log2),[69],4.44
IVLPLDARHVLGLGA [RP11-644F5.11],PRISMA enrichment of interactor (log2),[70],6.33
same,PRISMA enrichment of interactor (log2),[53],6.42
same,PRISMA enrichment of interactor (log2),[71],5.17
same,PRISMA enrichment of interactor (log2),[72],4.83
same,PRISMA enrichment of interactor (log2),[73],4.02
same,PRISMA enrichment of interactor (log2),[74],4.8
same,PRISMA enrichment of interactor (log2),[75],6.07
same,PRISMA enrichment of interactor (log2),[76],6.42
same,PRISMA enrichment of interactor (log2),[77],8.33
same,PRISMA enrichment of interactor (log2),[78],4.44
same,PRISMA enrichment of interactor (log2),[79],5.15
same,PRISMA enrichment of interactor (log2),[80],4.74
same,PRISMA enrichment of interactor (log2),[81],5.55
same,PRISMA enrichment of interactor (log2),[82],8.59
same,PRISMA enrichment of interactor (log2),[83],3.6
same,PRISMA enrichment of interactor (log2),[84],4.73
same,PRISMA enrichment of interactor (log2),[85],7.81
same,PRISMA enrichment of interactor (log2),[86],5.79

# Nothing new here: entries from further up.
binder,measurement,setting,value
CDRFWQTEPALLPPG [PPP1R15A],PRISMA enrichment of interactor (log2),[16],5.18
same,PRISMA enrichment of interactor (log2),[17],4.57
same,PRISMA enrichment of interactor (log2),[18],4.45

# Reformatted: results already given.
binder	measurement	setting	value
CDRFWQTEPALLPPG [PPP1R15A]	PRISMA enrichment of interactor (log2)	[11]	4.28
LQRSAKQSVKFQSQS [MKKS_2]	PRISMA enrichment of interactor (log2)	[28]	5.7
IVLPLDARHVLGLGA [RP11-644F5.11]	PRISMA enrichment of interactor (log2)	[86]	5.79
